The structures appear in SMILES notation. Some of the results follow.

For the experiment, the system named is T1, CTL2-GFP (C. trachomatis L2/434/Bu, GFP-expressing).
T1 construct: L2/434/Bu, GFP-expressing
More on the design: species or system HeLa; Intracellular C. trachomatis growth in HeLa cells, bulk GFP fluorescence relative to DMSO. The conditions noted are these: bulk GFP, single well; 28.5 h, 10 µM; inhibitor.
Take `Cc1ccc(S(=O)(=O)N2CC(=O)NC2=S)cc1` [CBK023293]: the “% of control remaining” value is on record as 108.754%.

As to `CCCc1[nH]nc(O)c1CCc1c(Cl)cccc1Cl` [CBK081403], the “% of control remaining” value came out at 103.101%.

For the compound `CCCCc1ccc(NS(=O)(=O)c2ccc(C)c(C(=O)O)c2)cc1` [CBK296111], the “% of control remaining” value stood at 102.931%.

Turning to `CCN(CC)C(=O)c1ccc(NS(=O)(=O)c2cc(F)c(Br)cc2F)cc1` [CBK034388], the “% of control remaining” value was 115.104%.

`COc1ccc(CN(Cc2ccc(OC)cc2)Cc2ccc(S(=O)(=O)N3CCOC3=O)cc2)cc1` [CBK014818]: the “% of control remaining” value came to 119.52%.

With `COc1ccc(CN(CCCN2CCOCC2)C(=O)NCCCN2CCCC2=O)cc1OC` [CBK159180], the “% of control remaining” value is 78.0786%.

In the case of `CN(Cc1nncn1C)C(=O)c1cnc2c(c1)c(C(C)(C)C)nn2C` [CBK304154], the “% of control remaining” value stood at 105.861%.

Regarding `COc1ccc(C(=O)Nc2nnc[nH]2)cc1` [CBK025569], the “% of control remaining” value is recorded as 139.008%.

As for `CC(C)CCNC(=O)N(CCc1ccccc1)Cc1ccccc1` [CBK155351], the “% of control remaining” value is given as 93.9011%.

On to `Cc1nn(C)c(C)c1OCC(=O)Nc1sc2c(c1C#N)CCC2` [CBK306374], for which the “% of control remaining” value came to 126.088%.

For the compound `Cc1ccccc1C(c1cnccn1)N(C)C(=O)C1CCN(S(=O)(=O)c2cn(C)cn2)CC1` (stereo not drawn) [CBK060264], the “% of control remaining” value was found to be 178.447%.

`FC(F)(F)c1cc(-c2ccccc2)nc2onc(OCCN3CCOCC3)c12` [CBK269392]: the “% of control remaining” value is recorded as 113.218%.

`COc1ccc(-c2cnn3c(N)c4c(nc23)CCC4)cc1` [CBK287987]: the “% of control remaining” value is given as 122.226%.

Turning to `Cc1cnn(-c2cc(N3CCC(n4cc(C5CC5)nn4)CC3)ncn2)c1` [CBK306721], the “% of control remaining” value turned out to be 70.8431%.

On to `CCc1ccccc1S(=O)(=O)N1CCOC(c2cnn(CC)c2)C1` (stereo not drawn) [CBK305421], for which the “% of control remaining” value stood at 82.4239%.

As for `CCC(CN1CCOCC1)NC(=O)Cc1coc2cc(C)ccc12` (stereo not drawn) [CBK282791], the “% of control remaining” value is on record as 123.429%.

Take `CC(OC(=O)c1ccc2c(c1)C(=O)N(c1ccc(Cl)cc1)C2=O)C(=O)c1ccccc1` (stereo not drawn) [CBK156661]: the “% of control remaining” value was 81.9451%.

Consider `Cc1cccnc1NC(=O)C(C)Oc1ccccc1` (stereo not drawn) [CBK268643], for which the “% of control remaining” value was determined as 149.802%.

Take `COCc1cc(=O)n2ncc(-c3ccccc3)c2[nH]1` [CBK288168]: the “% of control remaining” value was found to be 91.8307%.

On to `COc1ccc(Cl)cc1NS(=O)(=O)N1CCOCC1` [CBK269937], for which the “% of control remaining” value is 138.132%.

Take `CS(=O)(=O)c1ccc(-c2ccc(CN3CCN(C(=O)Cc4ccc(F)cc4F)CC3)cn2)cc1` [CBK162618T]: the “% of control remaining” value is on record as 109.629%.

On to `COc1ccccc1-c1nccnc1NCCCO` [CBK088971], for which the “% of control remaining” value was determined as 219.979%.

Turning to `CC1CCC(C(=O)NC(Cc2ccccc2)C(=O)O)CC1` (stereo not drawn) [CBK287080], the “% of control remaining” value worked out at 122.662%.

On to `CC(C)(C)c1ccc(C(=O)NC(=S)Nc2ccc(O)c(-c3nc4cc(Cl)ccc4o3)c2)cc1` [CBK264169], for which the “% of control remaining” value was 100%.

As for `COC(=O)CO[C@@H]1CO[C@H]2[C@@H]1OC[C@@H]2NC(=S)Nc1ccccc1` [CBK289459], the “% of control remaining” value is recorded as 121.727%.

In the case of `Cc1cc(C)nc(Nc2cccc(C3CCCN3C(=O)CCOc3ccccc3C)n2)n1` (stereo not drawn) [CBK286496], the “% of control remaining” value came out at 128.095%.

On to `CCOc1ccc(NC(=O)NC(CC)c2cnn(C)c2)cc1Cl` (stereo not drawn) [CBK307262], for which the “% of control remaining” value was determined as 111.427%.

For the compound `Cc1cnc(CNC(=O)N2CCN(Cc3ccccc3)CC2)cn1` [CBK155627], the “% of control remaining” value was found to be 98.0959%.

Consider `Cc1ccc(OCC(=O)NC(C)c2ccc(F)cc2F)c([N+](=O)[O-])n1` (stereo not drawn) [CBK295662], for which the “% of control remaining” value is on record as 137.99%.

As to `COCCNc1ncnc2sc3c(c12)CCCC3` [CBK287583], the “% of control remaining” value was 107.289%.

As for `O=C(NC(=S)Nn1cnnc1)c1ccccc1` [CBK028188], the “% of control remaining” value is 110.978%.

Regarding `Cc1nc(C2CN(Cc3cc4ccccc4nc3Cl)CCO2)no1` (stereo not drawn) [CBK305381], the “% of control remaining” value came out at 106.444%.

Consider `O=C(Nc1ccc(I)cc1C(=O)NCCN1CCOCC1)c1ccccc1Cl` [CBK266245], for which the “% of control remaining” value came to 64.907%.

`O=C(/C(=C\c1ccc([N+](=O)[O-])cc1)n1cncn1)c1ccc(Cl)cc1Cl` [CBK262145]: the “% of control remaining” value is listed as 82.017%.

Regarding `C[C@]1(CO)[C@H]2Cc3sc(-c4ccccc4)nc3[C@@H](CC(=O)O)[C@]2(C)CC[C@H]1O` [CBK289572], the “% of control remaining” value is on record as 139.697%.

Take `CCOc1ccc(NCCCCO)cc1` [CBK264386]: the “% of control remaining” value is 125.731%.

In the case of `Cc1nc(C(Cc2ccsc2)NC(=O)Cn2cccn2)sc1C` (stereo not drawn) [CBK284781], the “% of control remaining” value turned out to be 141.221%.

Take `Cc1csc2c(N3CCC(NCCCc4cnn(C)c4)CC3)ncnc12` [CBK307291]: the “% of control remaining” value is 136.172%.

Take `O=C(Nc1ccc2c(c1)OCCO2)N1CCN(c2cc(C(F)(F)F)ccn2)CC1` [CBK162331]: the “% of control remaining” value was 113.781%.

Consider `CN(C)CC1(O)C2CN3CCN(C2)CC1(c1ccccc1)C3` (stereo not drawn) [CBK263029], for which the “% of control remaining” value was found to be 119.203%.

In the case of `CC1CCN(S(=O)(=O)c2cccc(C(=O)N3CCC(C(=O)O)CC3)c2)CC1` [CBK266790], the “% of control remaining” value amounted to 86.364%.

Consider `Cc1nc(O)cc(C2CCCN(C(=O)c3csc4c3CCCC4)C2)n1` (stereo not drawn) [CBK306696], for which the “% of control remaining” value is given as 155.917%.

Consider `CC(=O)Nc1ccc(NC(=O)C2C3CCC(C3)C2C(=O)O)cc1` (stereo not drawn) [CBK263534], for which the “% of control remaining” value is reported as 130.655%.

For `O=C1N=C(NC2CCCCCC2)SC1Cc1nc2ccccc2[nH]1` (stereo not drawn) [CBK066789], the “% of control remaining” value is given as 132.518%.

On to `O=C(Nc1cccc(-c2noc(Cc3ccccc3)n2)c1)c1cccs1` [CBK270244], for which the “% of control remaining” value is given as 68.5202%.

For the compound `Cc1cc(S)c2cc(Br)ccc2n1` [CBK288445], the “% of control remaining” value turned out to be 140.904%.

Regarding `N=c1c2c3c(sc2ncn1CCCn1ccnc1)CCCC3` [CBK264211], the “% of control remaining” value turned out to be 100%.

As to `CC(C)c1nc(CCNC(=O)C2(Cn3ccnc3)CC2)no1` [CBK306828], the “% of control remaining” value is reported as 145.535%.

On to `COc1ccc2c(c1)OC1(CCN(C(=O)c3ccc(C(C)=O)cc3)CC1)CC2=O` [CBK156457], for which the “% of control remaining” value was 103.888%.

In the case of `O=C(COc1cccnc1)N1CCN(C(=O)c2ccco2)CC1` [CBK144482], the “% of control remaining” value worked out at 119.007%.

For `COc1ccc(CC(=O)N2CCCC2c2cccc(Cc3ccc(F)cc3)n2)cc1` (stereo not drawn) [CBK286233], the “% of control remaining” value came out at 116.789%.
